Record: PubChem BioAssay AID743121 (NCATS, 2013)
The deposit covers about 26,000 reagents; this is an unselected part. Over the whole deposit, 167 (0.63%) were called active. 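Calls are per gene from RSA p-values that are not deposited; an individual active-marked siRNA can sensitise only weakly.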 Entries without a mark were called inactive. Not all columns of the deposit are shown.

Assay: 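Genes whose silencing strengthens cell killing by camptothecin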 (primary screen)
System: MDA-MB-231 cells, a human breast cancer line
Reagents: single siRNA against human genes, 20 nM siRNA (0.8 pmol per well)
Duration: 120 h (drug added 48 h after transfection, read 72 h later)
Conditions: camptothecin 20 nM (about EC30) for 72 h; vehicle 0.1% DMSO in parallel plates
Read-out: 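Cell viability by ATP luminescence (CellTiter-Glo) as % of non-targeting siRNA wells, and the log2 ratio of viability without drug over viability with camptothecin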
Direction: log2 vehicle/camptothecin viability: higher = stronger sensitisation to camptothecin
Rule for the call: 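Each gene scored by redundant siRNA activity (RSA) over its individual siRNA ratios; a gene is called active at p < 0.001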

Knock-down of SLC25A42 (GeneID 284439) [SID164616121] gave: log2 vehicle/camptothecin viability -0.273. Depletion of SLC25A42 (GeneID 284439) [SID164616122] gave: log2 vehicle/camptothecin viability -0.159. SLC25A42 (GeneID 284439) [SID164616124] scored log2 vehicle/camptothecin viability 0.662. For SLC25A42 (GeneID 284439) [SID164616125], the values are log2 vehicle/camptothecin viability -0.365. With knock-down of UCKL1 (GeneID 54963) [SID164481809], the record shows log2 vehicle/camptothecin viability -0.241. UCKL1 (GeneID 54963) [SID164481810] showed log2 vehicle/camptothecin viability 0.872.

Silencing of UCKL1 (GeneID 54963) [SID164481813] gave: log2 vehicle/camptothecin viability -0.291. Against UCKL1 (GeneID 54963) [SID164481814] the deposit lists log2 vehicle/camptothecin viability -0.133. For IGF1 (GeneID 3479) [SID164370956], the entry reads log2 vehicle/camptothecin viability -0.358. Silencing of IGF1 (GeneID 3479) [SID164370958] gave: log2 vehicle/camptothecin viability -0.23. After knock-down of IGF1 (GeneID 3479) [SID164370959], the record shows log2 vehicle/camptothecin viability -0.219. Against IGF1 (GeneID 3479) [SID164370964] the deposit lists log2 vehicle/camptothecin viability -0.792.

DRD1 (GeneID 1812) [SID164362108] scored log2 vehicle/camptothecin viability -0.423. DRD1 (GeneID 1812) [SID164362109] showed log2 vehicle/camptothecin viability -0.394. With knock-down of DRD1 (GeneID 1812) [SID164362112], the screen gave log2 vehicle/camptothecin viability 0.185. With knock-down of DRD1 (GeneID 1812) [SID164362114] the results were log2 vehicle/camptothecin viability 0.0483. With knock-down of PCDHB5 (GeneID 26167) [SID164459184], the screen gave log2 vehicle/camptothecin viability -0.149. For PCDHB5 (GeneID 26167) [SID164459187], the entry reads log2 vehicle/camptothecin viability -0.207.

Against PCDHB5 (GeneID 26167) [SID164459188], the values are log2 vehicle/camptothecin viability -0.0413. Against PCDHB5 (GeneID 26167) [SID164459189], the entry reads log2 vehicle/camptothecin viability -0.101. Depletion of CYB5R2 (GeneID 51700) [SID164475085] gave: log2 vehicle/camptothecin viability -0.163. After knock-down of CYB5R2 (GeneID 51700) [SID164475086], the record shows log2 vehicle/camptothecin viability 0.307. Against CYB5R2 (GeneID 51700) [SID164475088], the entry reads log2 vehicle/camptothecin viability -0.303. Depletion of CYB5R2 (GeneID 51700) [SID164475090] resulted in: log2 vehicle/camptothecin viability -0.429.
